Source: US20080194678A1, “Process To Obtain Synthetic And Semi-Synthetic Lignan Derivatives, Their Antiparasitic Activities And Corresponding Pharmaceutical Formulations, Including The Therapeutic Method Using Said Lignan For The Treatment Of Parasitosis” (Fundacao de Amparo a Pesquissa do Estado de Aao Pa, priority 2005, published 2008)
At least one compound was matched to its structure with a doubt left.

Tested on: Schistosoma
Experiment: Schistosomicidal activity (test not specified)

SMILES: O=C1OC[C@@H]2Cc3cc4c(cc3[C@H](c3ccc5c(c3)OCO5)[C@@H]12)OCO4 [2a, polygamain]
- schistosomicidal activity: significant schistosomicidal activity
